## Library screen at single concentrations

Chains of the proteins cited; added tags and fusions are not shown. Residues count along the entry.
UniProt Q4DA54, 1-478: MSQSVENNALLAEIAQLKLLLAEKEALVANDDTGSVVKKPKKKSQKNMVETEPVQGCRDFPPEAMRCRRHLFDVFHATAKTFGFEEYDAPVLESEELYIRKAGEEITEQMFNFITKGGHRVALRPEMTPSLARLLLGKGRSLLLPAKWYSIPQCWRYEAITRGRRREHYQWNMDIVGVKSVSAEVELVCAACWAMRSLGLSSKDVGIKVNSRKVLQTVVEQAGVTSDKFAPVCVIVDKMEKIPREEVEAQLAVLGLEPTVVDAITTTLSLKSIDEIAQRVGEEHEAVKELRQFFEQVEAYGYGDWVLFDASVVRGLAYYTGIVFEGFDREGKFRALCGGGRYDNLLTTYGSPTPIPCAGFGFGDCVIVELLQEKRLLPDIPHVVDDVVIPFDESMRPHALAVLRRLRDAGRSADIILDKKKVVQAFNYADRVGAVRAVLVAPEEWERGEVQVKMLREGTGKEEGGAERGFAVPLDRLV
UniProt A4I591, 1-473: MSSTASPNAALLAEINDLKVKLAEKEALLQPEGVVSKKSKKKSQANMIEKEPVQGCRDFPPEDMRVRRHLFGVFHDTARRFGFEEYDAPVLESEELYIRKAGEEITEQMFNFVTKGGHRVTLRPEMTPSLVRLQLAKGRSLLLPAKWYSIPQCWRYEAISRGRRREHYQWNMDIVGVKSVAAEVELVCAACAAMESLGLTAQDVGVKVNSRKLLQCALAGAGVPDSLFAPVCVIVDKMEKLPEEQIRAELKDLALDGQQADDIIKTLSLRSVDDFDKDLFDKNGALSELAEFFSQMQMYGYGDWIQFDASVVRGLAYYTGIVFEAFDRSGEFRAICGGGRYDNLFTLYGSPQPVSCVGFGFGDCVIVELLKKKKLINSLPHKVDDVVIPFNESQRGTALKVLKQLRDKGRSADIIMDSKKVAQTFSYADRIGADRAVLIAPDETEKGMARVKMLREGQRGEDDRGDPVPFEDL

From ChEMBL document CHEMBL3988442, “University of Dundee, Small-Polar-MMV Screening Library” (2021).

Results are given as percent effect. The controls that fix the scale are not given in the record; negative values are as filed. Compounds were drawn at random from those tested, without regard to their results.

T. brucei: 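Whole-parasite assay of Trypanosoma brucei over 72 hours; the read-out is not stated. Tested at 30 µM. The record gives no direction; compounds that gave an IC50 in retests scored well above the rest, so higher reads as stronger inhibition. Values scatter widely below zero; nearly all retest evidence comes from the higher of the two concentrations used. Size under these conditions: about 64,000 compounds, about 940 of them at 50% or above in at least one test.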
TcHisRS: 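Histidine-tRNA ligase, Trypanosoma cruzi CL Brener (UniProt Q4DA54). Enzyme assay of histidyl-tRNA synthetase; the read-out is not stated. Compounds at 30 µM. Direction is inferred from retests: higher values go with stronger inhibition. Size under these conditions: about 69,000 compounds, about 31 of them at 50% or above in at least one test.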
LiHisRS: 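Histidine-tRNA ligase, Leishmania infantum (UniProt A4I591). Enzyme assay of histidyl-tRNA synthetase; the read-out is not stated. Tested at 30 µM. The record gives no direction; compounds that gave an IC50 in retests scored well above the rest, so higher reads as stronger inhibition. The assay is labelled LdHisRS but filed under L. infantum. Size under these conditions: about 69,000 compounds, about 410 of them at 50% or above in at least one test.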

CN(Cc1ccc(F)cc1)[C@@H]1CN(S(=O)(=O)N(C)C)C[C@H]1O gave T. brucei: -1.398%; TcHisRS: 1.916%; LiHisRS: 2.878%. Result for CC(c1ccccc1Cl)N1CCN(C(=O)c2ccc(=O)[nH]c2)CC1 (stereo not shown) was T. brucei: -65.7%; TcHisRS: 9.412%; LiHisRS: 11.9%. For Cc1ccc(C(CNC(=O)c2cc(CC(C)C)nn2C)N(C)C)cc1 (stereo not shown) the result was T. brucei: -1.844%; TcHisRS: 5.263%; LiHisRS: 15.83%. With N#Cc1ccc(N2CCC3(CCCN(c4ccccn4)C3)C2)nc1 (stereo not shown) the screen gave TcHisRS: 6.897%; LiHisRS: 28.95%.

CC(C)(C)C1CCC(NCCN2CCOCC2)CC1 (stereo not shown) gave T. brucei: 10.03%; TcHisRS: 2.564%; LiHisRS: 11.11%. CNC(=O)c1sc2ccccc2c1C1CCN(c2nc(C)cc(C)n2)C1 (stereo not shown) gave T. brucei: -8.786%; TcHisRS: 6.977%; LiHisRS: 14.18%. For Cc1ccc(NC(=O)c2cnc(N3CCN(C)CC3)nc2C)cc1C the result was T. brucei: 17.09%; TcHisRS: 2.97%; LiHisRS: 20.65%. With Cc1csc2c(C3CCN(CCCOc4ccccc4)CC3)nc(C)n12 the screen gave T. brucei: 37.06%; TcHisRS: 9.091%; LiHisRS: 12.68%.

Result for Cc1ncc(CNC2CC(=O)N(CCc3ccc(F)cc3)C2)n1C (stereo not shown) was T. brucei: 23.38%; TcHisRS: 0.8%; LiHisRS: 8.197%. CCc1ccccc1Nc1noc2c1CN(C(=O)C1CCCO1)CC2 (stereo not shown) read T. brucei: -35.15%; TcHisRS: 7.463%; LiHisRS: -1.053%. For COc1ccc(OC)c(CCNc2ncc(S(N)(=O)=O)s2)c1 the result was T. brucei: 10.49%; TcHisRS: 10.34%; LiHisRS: 16.67%. Result for O=C(O)C(F)(F)F.O=C(O)C(F)(F)F.[H][C@@]12CCN(c3ncc(F)cn3)C[C@]1([H])O[C@H](C(=O)NCc1cccnc1)C2 was T. brucei: -23.95%.

Result for COCCN(CCOC)S(=O)(=O)N(C)Cc1ccncc1 was T. brucei: -26.76%; TcHisRS: -0.8403%; LiHisRS: 19.3%. Result for CC(=O)N1CC[C@H]2OCC[C@@]2(C(=O)NCc2ccco2)C1 was TcHisRS: 4.865%; LiHisRS: 13.21%. Result for [H][C@@]12CCCO[C@]1([H])[C@H](OCC1CCOCC1)CN2C(=O)c1occc1C was T. brucei: 7.977%. CC(C)C(=O)N1CCCC([C@@H]2C[C@H](C(F)F)n3ncnc3N2)C1 (stereo partly shown) read T. brucei: 2.38%; TcHisRS: 4.215%; LiHisRS: 12.95%.

With Cc1cc(NC(=O)NCC(C)N2CCOCC2)n(C)n1 (stereo not shown) the screen gave T. brucei: -11.27%; TcHisRS: 6.395%; LiHisRS: 10.71%. COc1cc(CN2CCC(COCc3ccccc3)CC2)cc(OC)c1 read T. brucei: -2.071%; TcHisRS: 1.587%; LiHisRS: 22.67%. CN(C)CCOc1ccc(N(C)S(=O)(=O)c2cnn(C)c2)cc1 read TcHisRS: -4.386%; LiHisRS: 15.93%. Cn1c(CNCC2CCCN2c2cccnn2)nc2ccccc21 (stereo not shown) read T. brucei: 4.647%; TcHisRS: 3.458%; LiHisRS: -1.786%.

For CCOCc1cnc2n1CCN(C(=O)Cc1ccco1)C2C (stereo not shown) the result was T. brucei: -22.01%; TcHisRS: 5.747%; LiHisRS: 14%. With CN(CC(=O)Nc1cc(C(C)(C)C)n[nH]1)S(C)(=O)=O the screen gave T. brucei: -68.92%; TcHisRS: -0.5525%; LiHisRS: 1.042%. Result for CC(C)c1nc(CN2CCCC2Cn2cccn2)no1 (stereo not shown) was T. brucei: -2.446%; TcHisRS: 5.172%; LiHisRS: 8.696%. CNC(=O)NC(=O)CN1CCCC(Cc2ccccc2OC)C1 (stereo not shown) gave T. brucei: 26.83%; TcHisRS: 0%; LiHisRS: 14.88%.

CC(C)Nc1ncnc2c1CCN(C(=O)CCc1ccccc1)CC2 gave T. brucei: -25.91%; TcHisRS: 9.244%; LiHisRS: -2.752%. CCN(CC)CCn1cc(NC2CCSCC2)cn1 gave T. brucei: 3.473%; TcHisRS: 6.637%; LiHisRS: 6.195%. Result for CC(C)Cc1cc(C(=O)NC(C)(C)c2nnc(N)s2)n(C)n1 was T. brucei: -12.48%; TcHisRS: 1.205%; LiHisRS: 6%. With Cc1cc(CNC2CCCN(c3cccnn3)C2)no1 (stereo not shown) the screen gave T. brucei: -12.2%; TcHisRS: 3.347%; LiHisRS: 10.38%.

CO[C@H]1CCN(c2ncccn2)[C@H]1Cc1ccccc1 gave T. brucei: -56.66%; TcHisRS: 4.184%; LiHisRS: 6.604%. Result for Cc1cnc(NC(=O)N2CCOCC2)s1 was T. brucei: -17.09%; TcHisRS: 3.175%; LiHisRS: 9.091%. With CC(NC(=O)Cn1ccc(=O)n(C)c1=O)c1cc(F)ccc1F (stereo not shown) the screen gave TcHisRS: 4.843%; LiHisRS: 15.38%. For Cn1ccc(C(=O)Nc2nnc(-c3ccccn3)[nH]2)cc1=O the result was T. brucei: -28.88%; TcHisRS: 7.229%; LiHisRS: 14%.

CC(NCCNS(=O)(=O)c1cccc(Cl)c1)C1CCOCC1 (stereo not shown) read T. brucei: -17.31%; TcHisRS: 3.448%; LiHisRS: 6.494%. CC(C)N(C)C(=O)C1=NOC2(CCN(C(=O)c3cccn3C)C2)C1 (stereo not shown) read T. brucei: -38.56%; TcHisRS: 3.015%; LiHisRS: -1.064%.

Repeated from the top, 2 entries:

| compound | T. brucei | TcHisRS | LiHisRS |
|---|---|---|---|
| `CN(Cc1ccc(F)cc1)[C@@H]1CN(S(=O)(=O)N(C)C)C[C@H]1O` | -1.398% | 1.916% | 2.878% |
| `CC(c1ccccc1Cl)N1CCN(C(=O)c2ccc(=O)[nH]c2)CC1` (stereo not shown) | -65.7% | 9.412% | 11.9% |